From the supplement of paper PMC11006884
The list shows a part of the results, in another mix than the full data.

Sequences of proteins named here, by UniProt entry; tags and fusion partners are left off. A change or cut given only in a name is not applied to a line headed by its entry.
UniProt Q00688: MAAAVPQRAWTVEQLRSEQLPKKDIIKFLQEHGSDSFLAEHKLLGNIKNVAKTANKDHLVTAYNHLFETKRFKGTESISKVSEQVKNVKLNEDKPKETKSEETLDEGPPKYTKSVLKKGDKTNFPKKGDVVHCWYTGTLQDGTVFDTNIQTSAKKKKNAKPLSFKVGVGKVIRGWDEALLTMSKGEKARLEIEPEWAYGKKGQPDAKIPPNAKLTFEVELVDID
UniProt P78527, whole entry, looked up: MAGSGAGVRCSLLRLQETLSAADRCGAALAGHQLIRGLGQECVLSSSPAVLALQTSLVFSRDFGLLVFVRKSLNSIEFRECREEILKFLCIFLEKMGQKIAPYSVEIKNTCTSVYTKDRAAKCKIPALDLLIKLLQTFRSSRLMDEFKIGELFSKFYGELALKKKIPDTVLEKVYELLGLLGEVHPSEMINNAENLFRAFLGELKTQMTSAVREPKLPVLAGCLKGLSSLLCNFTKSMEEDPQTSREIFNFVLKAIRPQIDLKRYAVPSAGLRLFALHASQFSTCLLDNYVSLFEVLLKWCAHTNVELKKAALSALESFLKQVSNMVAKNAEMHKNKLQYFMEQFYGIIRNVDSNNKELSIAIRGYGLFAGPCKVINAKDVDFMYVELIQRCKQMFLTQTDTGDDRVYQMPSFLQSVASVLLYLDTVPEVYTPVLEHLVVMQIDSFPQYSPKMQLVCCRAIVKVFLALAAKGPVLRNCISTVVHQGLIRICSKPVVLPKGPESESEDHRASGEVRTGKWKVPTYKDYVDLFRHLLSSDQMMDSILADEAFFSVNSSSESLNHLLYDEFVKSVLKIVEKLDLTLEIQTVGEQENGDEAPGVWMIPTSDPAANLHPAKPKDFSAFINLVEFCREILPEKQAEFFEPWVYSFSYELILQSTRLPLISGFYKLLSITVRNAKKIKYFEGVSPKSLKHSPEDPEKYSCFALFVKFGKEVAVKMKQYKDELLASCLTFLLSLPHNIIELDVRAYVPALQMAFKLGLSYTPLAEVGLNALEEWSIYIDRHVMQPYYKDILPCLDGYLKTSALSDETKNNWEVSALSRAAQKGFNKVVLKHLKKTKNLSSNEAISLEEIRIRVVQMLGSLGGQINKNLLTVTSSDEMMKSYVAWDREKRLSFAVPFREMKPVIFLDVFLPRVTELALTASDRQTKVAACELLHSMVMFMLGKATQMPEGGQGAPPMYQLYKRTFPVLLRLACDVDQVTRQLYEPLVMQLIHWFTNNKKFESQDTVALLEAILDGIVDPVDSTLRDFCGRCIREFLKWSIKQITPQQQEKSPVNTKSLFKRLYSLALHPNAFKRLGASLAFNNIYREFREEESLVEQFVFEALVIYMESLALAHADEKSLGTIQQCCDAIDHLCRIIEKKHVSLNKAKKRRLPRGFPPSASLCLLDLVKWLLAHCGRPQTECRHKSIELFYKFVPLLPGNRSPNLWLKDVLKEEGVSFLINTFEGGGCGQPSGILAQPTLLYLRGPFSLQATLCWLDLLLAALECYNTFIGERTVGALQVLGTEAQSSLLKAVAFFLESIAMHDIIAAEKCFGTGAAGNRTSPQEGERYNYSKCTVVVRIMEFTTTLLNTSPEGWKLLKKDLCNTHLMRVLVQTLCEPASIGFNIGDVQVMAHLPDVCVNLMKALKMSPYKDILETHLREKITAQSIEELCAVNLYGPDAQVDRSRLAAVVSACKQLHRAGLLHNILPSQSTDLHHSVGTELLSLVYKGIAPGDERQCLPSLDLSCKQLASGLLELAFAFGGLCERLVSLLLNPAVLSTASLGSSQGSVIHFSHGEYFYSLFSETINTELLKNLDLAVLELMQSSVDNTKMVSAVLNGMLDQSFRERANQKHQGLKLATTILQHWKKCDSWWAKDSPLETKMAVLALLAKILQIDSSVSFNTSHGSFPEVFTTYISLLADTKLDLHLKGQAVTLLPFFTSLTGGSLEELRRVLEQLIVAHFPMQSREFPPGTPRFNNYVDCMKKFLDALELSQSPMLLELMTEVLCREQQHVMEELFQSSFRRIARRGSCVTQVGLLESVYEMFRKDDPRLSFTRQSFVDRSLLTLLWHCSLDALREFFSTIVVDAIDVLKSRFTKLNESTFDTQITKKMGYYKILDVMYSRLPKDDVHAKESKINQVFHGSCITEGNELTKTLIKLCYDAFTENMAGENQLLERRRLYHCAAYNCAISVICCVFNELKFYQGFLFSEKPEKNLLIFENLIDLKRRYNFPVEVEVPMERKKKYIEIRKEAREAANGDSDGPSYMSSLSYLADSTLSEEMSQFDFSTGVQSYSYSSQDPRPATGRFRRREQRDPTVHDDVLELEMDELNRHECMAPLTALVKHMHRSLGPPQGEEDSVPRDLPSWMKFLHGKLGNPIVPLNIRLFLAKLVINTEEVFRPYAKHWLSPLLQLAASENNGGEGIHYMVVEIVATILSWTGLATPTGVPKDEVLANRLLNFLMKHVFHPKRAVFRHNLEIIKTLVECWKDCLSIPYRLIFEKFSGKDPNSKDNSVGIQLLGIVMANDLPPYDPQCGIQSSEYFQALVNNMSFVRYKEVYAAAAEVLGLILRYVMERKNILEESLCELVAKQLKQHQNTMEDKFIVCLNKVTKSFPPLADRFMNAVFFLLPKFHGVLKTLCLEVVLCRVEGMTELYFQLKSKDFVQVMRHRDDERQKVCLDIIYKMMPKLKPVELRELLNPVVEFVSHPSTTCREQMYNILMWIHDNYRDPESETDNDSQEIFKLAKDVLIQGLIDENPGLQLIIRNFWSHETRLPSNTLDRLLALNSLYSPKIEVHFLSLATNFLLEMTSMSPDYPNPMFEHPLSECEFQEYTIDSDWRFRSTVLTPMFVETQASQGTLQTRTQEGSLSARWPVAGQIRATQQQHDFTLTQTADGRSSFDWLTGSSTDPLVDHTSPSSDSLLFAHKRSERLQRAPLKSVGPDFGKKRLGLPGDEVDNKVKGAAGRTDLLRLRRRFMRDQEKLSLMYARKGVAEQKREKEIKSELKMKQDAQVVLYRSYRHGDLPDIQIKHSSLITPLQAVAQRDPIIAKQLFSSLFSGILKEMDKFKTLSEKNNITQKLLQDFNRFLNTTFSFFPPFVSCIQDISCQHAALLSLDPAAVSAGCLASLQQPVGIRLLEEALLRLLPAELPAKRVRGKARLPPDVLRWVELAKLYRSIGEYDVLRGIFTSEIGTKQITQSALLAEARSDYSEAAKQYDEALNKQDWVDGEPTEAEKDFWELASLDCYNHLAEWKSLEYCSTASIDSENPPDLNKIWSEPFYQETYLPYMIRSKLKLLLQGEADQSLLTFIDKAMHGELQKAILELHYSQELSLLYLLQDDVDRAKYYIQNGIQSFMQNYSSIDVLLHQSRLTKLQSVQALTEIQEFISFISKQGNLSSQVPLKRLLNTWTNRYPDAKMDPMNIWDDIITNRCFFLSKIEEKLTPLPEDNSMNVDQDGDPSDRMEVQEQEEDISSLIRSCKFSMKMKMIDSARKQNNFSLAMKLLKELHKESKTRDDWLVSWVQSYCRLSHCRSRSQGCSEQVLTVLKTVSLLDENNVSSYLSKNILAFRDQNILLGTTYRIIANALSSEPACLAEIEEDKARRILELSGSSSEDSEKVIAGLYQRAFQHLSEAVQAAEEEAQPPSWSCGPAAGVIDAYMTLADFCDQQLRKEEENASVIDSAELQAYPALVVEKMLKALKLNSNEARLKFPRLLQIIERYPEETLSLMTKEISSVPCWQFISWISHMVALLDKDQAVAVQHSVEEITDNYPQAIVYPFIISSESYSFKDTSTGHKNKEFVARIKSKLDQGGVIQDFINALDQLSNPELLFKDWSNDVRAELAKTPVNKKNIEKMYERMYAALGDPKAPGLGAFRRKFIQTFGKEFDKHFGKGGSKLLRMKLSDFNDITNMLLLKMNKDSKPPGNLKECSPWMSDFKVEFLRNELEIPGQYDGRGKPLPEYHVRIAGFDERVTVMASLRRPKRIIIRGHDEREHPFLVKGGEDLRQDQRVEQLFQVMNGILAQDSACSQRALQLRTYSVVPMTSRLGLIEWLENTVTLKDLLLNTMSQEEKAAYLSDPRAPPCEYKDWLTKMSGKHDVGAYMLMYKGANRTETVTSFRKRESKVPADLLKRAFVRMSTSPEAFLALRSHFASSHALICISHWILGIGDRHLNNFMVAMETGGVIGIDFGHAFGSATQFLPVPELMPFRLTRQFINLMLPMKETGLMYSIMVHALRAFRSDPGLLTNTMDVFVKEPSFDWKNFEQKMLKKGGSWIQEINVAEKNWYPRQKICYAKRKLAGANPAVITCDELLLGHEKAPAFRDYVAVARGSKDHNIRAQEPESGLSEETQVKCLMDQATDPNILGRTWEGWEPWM
UniProt P67775, whole entry, looked up: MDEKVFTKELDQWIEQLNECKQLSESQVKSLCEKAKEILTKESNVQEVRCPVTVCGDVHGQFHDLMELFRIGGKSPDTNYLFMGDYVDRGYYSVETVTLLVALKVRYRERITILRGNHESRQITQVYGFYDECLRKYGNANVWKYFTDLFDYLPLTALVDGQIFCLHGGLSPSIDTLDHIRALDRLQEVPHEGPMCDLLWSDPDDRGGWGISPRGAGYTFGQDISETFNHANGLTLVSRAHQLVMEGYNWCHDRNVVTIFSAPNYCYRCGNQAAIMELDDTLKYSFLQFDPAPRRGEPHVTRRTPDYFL
UniProt P79522: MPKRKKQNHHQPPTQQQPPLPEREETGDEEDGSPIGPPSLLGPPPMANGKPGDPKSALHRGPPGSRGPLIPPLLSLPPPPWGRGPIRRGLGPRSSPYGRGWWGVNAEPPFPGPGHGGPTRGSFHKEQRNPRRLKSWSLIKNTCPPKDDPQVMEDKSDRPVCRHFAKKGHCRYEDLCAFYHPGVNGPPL
UniProt P86791: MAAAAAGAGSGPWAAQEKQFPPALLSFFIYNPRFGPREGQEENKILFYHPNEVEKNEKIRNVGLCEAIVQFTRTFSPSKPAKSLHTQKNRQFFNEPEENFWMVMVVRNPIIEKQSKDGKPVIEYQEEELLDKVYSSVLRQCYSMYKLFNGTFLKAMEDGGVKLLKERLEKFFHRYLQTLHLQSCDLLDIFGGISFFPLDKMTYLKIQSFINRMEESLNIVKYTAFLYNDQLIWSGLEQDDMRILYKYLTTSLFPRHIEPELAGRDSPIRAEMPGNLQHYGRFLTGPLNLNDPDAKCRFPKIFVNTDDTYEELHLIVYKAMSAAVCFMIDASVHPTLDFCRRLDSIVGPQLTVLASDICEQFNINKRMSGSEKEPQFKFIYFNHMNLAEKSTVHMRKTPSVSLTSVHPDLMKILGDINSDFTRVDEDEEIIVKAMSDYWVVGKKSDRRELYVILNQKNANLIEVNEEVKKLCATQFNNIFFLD
UniProt P78549: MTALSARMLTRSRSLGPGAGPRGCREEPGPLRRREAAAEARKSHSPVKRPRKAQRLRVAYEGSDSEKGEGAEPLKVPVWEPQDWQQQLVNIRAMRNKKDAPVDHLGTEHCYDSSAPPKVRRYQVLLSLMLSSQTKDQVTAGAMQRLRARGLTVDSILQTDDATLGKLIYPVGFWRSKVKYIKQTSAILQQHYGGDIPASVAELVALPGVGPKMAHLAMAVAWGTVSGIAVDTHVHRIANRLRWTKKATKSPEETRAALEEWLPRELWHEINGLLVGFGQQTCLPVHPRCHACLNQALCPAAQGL
UniProt P83369: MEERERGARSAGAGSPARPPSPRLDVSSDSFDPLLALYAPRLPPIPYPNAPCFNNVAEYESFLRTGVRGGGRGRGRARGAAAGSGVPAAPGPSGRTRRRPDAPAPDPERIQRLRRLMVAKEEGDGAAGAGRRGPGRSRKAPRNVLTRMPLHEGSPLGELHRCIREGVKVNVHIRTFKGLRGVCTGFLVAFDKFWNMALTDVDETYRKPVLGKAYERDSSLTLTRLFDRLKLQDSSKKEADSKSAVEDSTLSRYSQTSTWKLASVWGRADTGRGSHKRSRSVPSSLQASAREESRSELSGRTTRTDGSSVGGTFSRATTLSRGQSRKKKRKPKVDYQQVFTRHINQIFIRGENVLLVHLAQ
UniProt P62258: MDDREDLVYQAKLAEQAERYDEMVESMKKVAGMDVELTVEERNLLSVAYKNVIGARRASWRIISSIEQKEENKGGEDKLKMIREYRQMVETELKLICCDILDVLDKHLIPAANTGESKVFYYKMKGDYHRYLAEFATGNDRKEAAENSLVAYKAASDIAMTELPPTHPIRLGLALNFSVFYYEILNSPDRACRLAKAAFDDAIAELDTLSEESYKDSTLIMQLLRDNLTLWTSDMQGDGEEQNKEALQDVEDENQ
UniProt Q00403, whole entry: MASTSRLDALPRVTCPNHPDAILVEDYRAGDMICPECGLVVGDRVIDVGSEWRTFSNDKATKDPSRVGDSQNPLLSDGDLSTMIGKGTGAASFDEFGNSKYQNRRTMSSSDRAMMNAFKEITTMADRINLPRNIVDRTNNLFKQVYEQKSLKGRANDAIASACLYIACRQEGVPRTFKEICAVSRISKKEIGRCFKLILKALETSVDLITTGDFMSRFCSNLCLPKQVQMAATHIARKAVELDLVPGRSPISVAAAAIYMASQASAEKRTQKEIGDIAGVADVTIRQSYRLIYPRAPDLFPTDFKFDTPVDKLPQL

Compound: COC(=O)C#Cc1ccccc1 [methyl 3-phenylpropiolate]
Assay: log2 ratio of iodoacetamide-alkyne labeling of the cysteine site, DMSO over compound (competition); higher = stronger covalent engagement of the cysteine by the compound, active = 1 or more
Conditions: 500 µM; treatment time 1 h; system: HEK293T cell lysate
Summary of the method: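 The log2 competition ratio per cysteine is defined as mean reporter intensity in control channels over mean reporter intensity in compound channels. Lysate from HEK293T cells (2 mg/mL) received electrophile (500 µM) or vehicle for 1 h at ambient temperature, followed by iodoacetamide alkyne for 1 h. Samples were clicked to sCIP-TMT reagents, pooled, trypsin-digested overnight at 37 °C, streptavidin-enriched, acid-eluted and run on Orbitrap Eclipse LC-MS/MS with FAIMS, with quantification in FragPipe. Three replicates with duplicate channels were used, and any cysteine quantified in only one replicate was excluded.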

log2 ratio of iodoacetamide-alkyne labeling, inactive:
PITPNA C230 (UniProt Q00169) 0.182
FKBP3 C133 (UniProt Q00688) 0.158
GTF2I C80 (UniProt P78347) 0.0358
SORD C120 (UniProt Q00796) 0.0439
UniProt P78527_C1499 0.575
UniProt P78527_C4106 0.838
UniProt P68363_C316 0.118
PPP2CA C20 (UniProt P67775) 0.143
UniProt P83731_C36 0.753
UniProt P68363_C347 0.563
XPC C224 (UniProt Q01831) 0.578
UniProt P63244_C240 0.159
PRR3 C176 (UniProt P79522) 0.0917
UniProt Q00341_C855 0.414
KIF23 C165 (UniProt Q02241) 0.359
UniProt P63244_C153 0.497
CLTC C1528 (UniProt Q00610) 0.222
UniProt P84090_C28 -0.256
UniProt P78527_C1791 0.103
SPTBN1 C964 (UniProt Q01082) 0.192
CCT2 C289 (UniProt P78371) 0.0805
UniProt P62280_C116 0.608
OGDH C566 (UniProt Q02218) 0.0248
P86790_C65 (UniProt P86791+P86790) 0.2
UniProt P78527_C3837 0.55
NTHL1 C290 (UniProt P78549) 0.0184
UniProt P78527_C3281 0.287
CLTC C459 (UniProt Q00610) 0.282
PFKP C343 (UniProt Q01813) 0.276
UniProt P78527_C3403 0.156
LSM11 C52 (UniProt P83369) 0.808
UniProt P62917_C115 0.195
UniProt P78527_C1229 0.0957
UniProt P62258_C98 0.0722
UniProt P62995_C119 0.019
MRPS9 C233 (UniProt P82933) 0.339
UniProt P78527_C1312 0.0987
GTF2B C15 (UniProt Q00403) 0.155

Retrieved one by one from the entries so far (two):
log2 ratio of iodoacetamide-alkyne labeling, inactive:
GTF2B C15 (UniProt Q00403) 0.155
XPC C224 (UniProt Q01831) 0.578
